Laboratory results: patent US10961238B2, “Modulators of hedgehog (Hh) signaling pathway” (E-THERAPEUTICS PLC, priority 2016, dated 2021)
At least one structure is not confirmed: it was looked up by name or label, or the drawing left a doubt.

Amino acid sequences for entries named in this document (tags omitted). Residues count along the entry.
UniProt Q99835, 28-787: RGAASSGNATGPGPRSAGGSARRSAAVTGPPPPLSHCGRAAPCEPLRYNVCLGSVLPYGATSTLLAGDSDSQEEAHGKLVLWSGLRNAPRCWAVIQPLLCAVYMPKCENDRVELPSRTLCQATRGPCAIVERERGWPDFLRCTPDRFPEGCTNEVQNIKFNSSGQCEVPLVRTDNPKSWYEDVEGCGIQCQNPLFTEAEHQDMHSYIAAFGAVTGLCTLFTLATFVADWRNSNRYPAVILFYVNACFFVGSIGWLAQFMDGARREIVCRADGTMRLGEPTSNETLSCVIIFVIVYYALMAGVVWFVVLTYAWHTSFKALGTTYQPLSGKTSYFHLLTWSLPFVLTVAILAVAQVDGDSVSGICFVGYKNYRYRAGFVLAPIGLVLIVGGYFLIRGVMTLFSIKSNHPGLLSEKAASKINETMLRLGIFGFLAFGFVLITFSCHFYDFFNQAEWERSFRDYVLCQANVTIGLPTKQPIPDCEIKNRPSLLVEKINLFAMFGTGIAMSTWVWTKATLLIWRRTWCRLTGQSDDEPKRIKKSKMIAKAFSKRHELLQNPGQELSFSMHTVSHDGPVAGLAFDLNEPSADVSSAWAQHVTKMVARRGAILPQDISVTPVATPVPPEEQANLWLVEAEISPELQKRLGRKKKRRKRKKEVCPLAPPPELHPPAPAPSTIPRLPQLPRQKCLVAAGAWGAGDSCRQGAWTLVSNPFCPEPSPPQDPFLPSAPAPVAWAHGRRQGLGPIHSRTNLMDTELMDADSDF

What follows are compounds tested against T1, SMO (Homo sapiens, UniProt Q99835) (assay: Smoothened (SMO) binding fluorescence polarisation assay (BODIPY-cyclopamine competition)). Conditions: SMO binding FP assay versus C3H10T1/2 cellular assay.
T1 construct: expressed in transfected cells; host or cells: HEK293
Experimental: Standard Protocol for Smoothened (SMO) Binding Fluorescence Polarisation Assay.
The assay measures the ability of the test compounds to compete with a fluorescently-labelled version of the known ligand, cyclopamine, for binding to SMO. The fluorescent tag used is BODIPY (boron dipyrromethene).
An aliquot of a membrane preparation from a SMO-over-expressing HEK293 cell line is diluted to protein concentration of 0.117 mg/ml in assay buffer (25 mM HEPES, 2 mM EDTA, 0.05% γ-globulin, 0.01% pluronic acid pH7.4, plus protease Inhibitor cocktail). 8.5 μl of the membrane suspension is added to each well of a black, low volume 384 well microtitre plate.
Test compounds are added in a seven point dilution range to the wells containing the membrane preparation. The final DMSO solvent concentration in the wells is maintained at 0.3%. 6.5 μl of a 6.9 nM BODIPY-cyclopamine solution is added to each of the wells (final assay concentration 3 nM).
The plate is sealed and stored in the dark at room temperature for 24 hours prior to measurement of the fluorescence polarisation signal on a Perkin Elmer Envision multi-label reader.
Table 4 below details the ratio of SMO binding compared to the potency in the C3H10T1/2 cellular assay. The small ratio between SMO binding and potency for vismodegib is considered to be reflective of the fact vismodegib acts mainly through inhibition of the SMO protein. The larger ratios for the compound of the invention are considered to be reflective of alternate actions outside of direct SMO inhibition.

Q: `CC(C)(C)OC(=O)N1CCC(S(=O)(=O)N2CCC(c3c[nH]c4ncc(C(F)(F)F)cc34)CC2)CC1` [Compound 116] was tested. Which “Ratio of potency in SMO binding assay to potency in C3H10T1/2 cellular assay” value (from here on “Ratio of potency in SMO binding assay”) did it give?
A: 21

Q: For `CC(C)(O)c1cccnc1N1CC(S(=O)(=O)N2CCC(c3c[nH]c4ncccc34)CC2)C1` [Compound 255, 2-[2-[3-[4-(1H-pyrrolo[2,3-b]pyridin-3-yl)piperidin-1-yl]sulfonylaze-tidin-1-yl]pyridin-3-yl]propan-2-ol], which “Ratio of potency in SMO binding assay” value is on record?
A: 21

Q: How did the “Ratio of potency in SMO binding assay” value turn out when `O=C(NC1(C(F)(F)F)CC1)N1CC(S(=O)(=O)N2CCC(c3ccncc3)CC2)C1` [Compound 265, 3-(4-pyridin-4-ylpiperidin-1-yl)sulfonyl-N-[1-(trifluoromethyl)-cyclopropyl] azetidine-1-carboxamide] was run?
A: 3.9
